# Data: the supplement of paper PMC6411743
# Amino acid sequences for entries named in this document (tags omitted). A change or cut given only in a name is not applied to a line headed by its entry.
# UniProt O96017, whole entry: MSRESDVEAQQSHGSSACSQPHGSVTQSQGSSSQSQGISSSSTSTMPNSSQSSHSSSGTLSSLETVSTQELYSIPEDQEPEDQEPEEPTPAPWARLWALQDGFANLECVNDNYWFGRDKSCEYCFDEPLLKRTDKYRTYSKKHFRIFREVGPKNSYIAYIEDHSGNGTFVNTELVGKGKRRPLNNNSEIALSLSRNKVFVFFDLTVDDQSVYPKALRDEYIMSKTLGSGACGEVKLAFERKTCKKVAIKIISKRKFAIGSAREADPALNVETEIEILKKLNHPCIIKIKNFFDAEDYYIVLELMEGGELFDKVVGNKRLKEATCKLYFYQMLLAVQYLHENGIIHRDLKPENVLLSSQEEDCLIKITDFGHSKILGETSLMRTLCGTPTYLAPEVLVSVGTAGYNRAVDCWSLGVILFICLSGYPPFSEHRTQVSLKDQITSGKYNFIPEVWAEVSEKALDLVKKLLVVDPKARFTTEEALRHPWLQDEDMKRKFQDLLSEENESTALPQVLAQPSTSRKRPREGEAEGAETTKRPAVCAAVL
# UniProt O94826, whole entry: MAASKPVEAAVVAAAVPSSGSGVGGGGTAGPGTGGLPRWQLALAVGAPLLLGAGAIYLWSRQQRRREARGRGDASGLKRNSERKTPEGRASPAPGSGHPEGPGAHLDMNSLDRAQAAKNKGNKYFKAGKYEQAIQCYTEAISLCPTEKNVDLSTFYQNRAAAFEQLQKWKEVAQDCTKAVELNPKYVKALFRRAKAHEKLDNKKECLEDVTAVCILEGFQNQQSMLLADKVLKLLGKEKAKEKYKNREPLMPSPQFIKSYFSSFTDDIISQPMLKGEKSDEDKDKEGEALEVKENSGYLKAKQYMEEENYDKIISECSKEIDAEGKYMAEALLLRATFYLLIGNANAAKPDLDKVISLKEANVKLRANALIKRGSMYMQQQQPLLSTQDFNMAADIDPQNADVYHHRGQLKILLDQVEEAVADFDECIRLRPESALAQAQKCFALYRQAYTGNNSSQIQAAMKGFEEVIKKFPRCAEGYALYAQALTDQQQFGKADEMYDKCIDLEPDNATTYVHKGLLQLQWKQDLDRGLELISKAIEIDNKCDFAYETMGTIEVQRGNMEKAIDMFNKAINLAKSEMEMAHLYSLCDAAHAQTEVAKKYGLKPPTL
# UniProt O75208: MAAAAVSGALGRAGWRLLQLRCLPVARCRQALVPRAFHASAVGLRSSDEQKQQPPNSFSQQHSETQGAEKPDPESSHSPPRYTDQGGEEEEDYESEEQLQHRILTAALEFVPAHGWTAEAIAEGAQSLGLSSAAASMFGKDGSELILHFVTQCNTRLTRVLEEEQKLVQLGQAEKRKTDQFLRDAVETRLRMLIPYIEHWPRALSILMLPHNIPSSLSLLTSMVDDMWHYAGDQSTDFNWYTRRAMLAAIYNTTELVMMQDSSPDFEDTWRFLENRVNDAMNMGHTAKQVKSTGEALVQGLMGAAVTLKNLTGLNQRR
# UniProt P06127: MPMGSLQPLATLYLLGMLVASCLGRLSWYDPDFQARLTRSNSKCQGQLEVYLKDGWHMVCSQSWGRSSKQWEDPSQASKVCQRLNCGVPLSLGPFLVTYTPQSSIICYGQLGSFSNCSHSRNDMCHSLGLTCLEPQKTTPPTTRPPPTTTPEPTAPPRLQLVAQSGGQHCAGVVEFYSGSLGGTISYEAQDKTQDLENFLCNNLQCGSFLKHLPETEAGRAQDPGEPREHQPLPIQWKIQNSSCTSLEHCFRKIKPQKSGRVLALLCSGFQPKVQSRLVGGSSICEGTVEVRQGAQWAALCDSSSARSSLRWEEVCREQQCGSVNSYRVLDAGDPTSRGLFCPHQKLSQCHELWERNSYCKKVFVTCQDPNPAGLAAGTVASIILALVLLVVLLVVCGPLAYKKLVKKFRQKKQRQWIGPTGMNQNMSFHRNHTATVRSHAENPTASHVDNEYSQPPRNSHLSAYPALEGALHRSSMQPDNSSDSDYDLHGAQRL
# UniProt O75688: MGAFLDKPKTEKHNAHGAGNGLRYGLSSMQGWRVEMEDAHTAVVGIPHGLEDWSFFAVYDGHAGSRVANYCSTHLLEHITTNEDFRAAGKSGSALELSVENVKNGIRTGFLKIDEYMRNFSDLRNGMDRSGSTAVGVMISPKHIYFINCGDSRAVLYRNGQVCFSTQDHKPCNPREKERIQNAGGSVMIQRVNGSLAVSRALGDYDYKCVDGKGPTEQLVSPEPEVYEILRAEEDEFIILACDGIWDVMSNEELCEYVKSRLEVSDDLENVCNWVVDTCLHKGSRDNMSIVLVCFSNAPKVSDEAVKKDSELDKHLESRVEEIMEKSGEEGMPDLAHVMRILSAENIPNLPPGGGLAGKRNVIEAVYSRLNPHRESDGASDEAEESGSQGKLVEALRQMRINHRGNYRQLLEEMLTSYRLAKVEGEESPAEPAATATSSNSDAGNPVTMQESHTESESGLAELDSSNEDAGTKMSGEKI
# UniProt O95644: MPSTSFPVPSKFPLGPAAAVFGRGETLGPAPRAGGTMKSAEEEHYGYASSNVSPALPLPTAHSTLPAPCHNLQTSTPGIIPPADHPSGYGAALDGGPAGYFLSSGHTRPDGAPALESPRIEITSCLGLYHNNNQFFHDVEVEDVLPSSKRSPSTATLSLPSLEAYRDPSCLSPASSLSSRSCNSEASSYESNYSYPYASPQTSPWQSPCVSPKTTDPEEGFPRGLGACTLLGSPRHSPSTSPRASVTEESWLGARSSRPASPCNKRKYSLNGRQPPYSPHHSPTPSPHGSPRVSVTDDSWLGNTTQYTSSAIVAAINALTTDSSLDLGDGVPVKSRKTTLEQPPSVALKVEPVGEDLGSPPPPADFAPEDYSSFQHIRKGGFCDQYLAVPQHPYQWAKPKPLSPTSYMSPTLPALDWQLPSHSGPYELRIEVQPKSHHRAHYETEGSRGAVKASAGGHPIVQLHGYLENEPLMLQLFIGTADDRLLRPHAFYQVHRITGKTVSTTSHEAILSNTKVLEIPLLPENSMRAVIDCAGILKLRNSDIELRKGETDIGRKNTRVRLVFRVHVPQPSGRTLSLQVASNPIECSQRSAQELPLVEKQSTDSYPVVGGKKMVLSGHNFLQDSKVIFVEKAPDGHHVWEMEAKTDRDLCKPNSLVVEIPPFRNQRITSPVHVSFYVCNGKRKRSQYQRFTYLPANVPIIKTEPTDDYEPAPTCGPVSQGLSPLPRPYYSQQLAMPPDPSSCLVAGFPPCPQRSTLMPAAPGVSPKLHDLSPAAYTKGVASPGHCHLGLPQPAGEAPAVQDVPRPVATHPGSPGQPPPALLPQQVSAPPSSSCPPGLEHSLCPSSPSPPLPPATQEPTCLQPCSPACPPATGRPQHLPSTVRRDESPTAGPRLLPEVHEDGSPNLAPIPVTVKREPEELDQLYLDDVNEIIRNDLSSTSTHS
# UniProt O75191: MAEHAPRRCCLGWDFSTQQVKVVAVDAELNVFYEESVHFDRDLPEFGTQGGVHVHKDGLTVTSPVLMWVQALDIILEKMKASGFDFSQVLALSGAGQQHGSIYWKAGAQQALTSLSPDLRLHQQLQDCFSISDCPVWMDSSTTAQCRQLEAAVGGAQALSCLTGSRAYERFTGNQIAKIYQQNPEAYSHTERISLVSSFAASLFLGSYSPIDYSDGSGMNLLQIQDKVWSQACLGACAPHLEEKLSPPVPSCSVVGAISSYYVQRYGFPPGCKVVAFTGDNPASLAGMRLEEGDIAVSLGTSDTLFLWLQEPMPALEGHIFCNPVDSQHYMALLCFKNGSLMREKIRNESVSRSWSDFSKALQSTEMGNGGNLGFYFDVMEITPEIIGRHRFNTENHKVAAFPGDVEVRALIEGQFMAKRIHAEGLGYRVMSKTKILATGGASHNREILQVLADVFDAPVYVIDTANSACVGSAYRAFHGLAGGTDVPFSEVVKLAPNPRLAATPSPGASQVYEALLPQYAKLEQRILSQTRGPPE
# UniProt O95425, whole entry: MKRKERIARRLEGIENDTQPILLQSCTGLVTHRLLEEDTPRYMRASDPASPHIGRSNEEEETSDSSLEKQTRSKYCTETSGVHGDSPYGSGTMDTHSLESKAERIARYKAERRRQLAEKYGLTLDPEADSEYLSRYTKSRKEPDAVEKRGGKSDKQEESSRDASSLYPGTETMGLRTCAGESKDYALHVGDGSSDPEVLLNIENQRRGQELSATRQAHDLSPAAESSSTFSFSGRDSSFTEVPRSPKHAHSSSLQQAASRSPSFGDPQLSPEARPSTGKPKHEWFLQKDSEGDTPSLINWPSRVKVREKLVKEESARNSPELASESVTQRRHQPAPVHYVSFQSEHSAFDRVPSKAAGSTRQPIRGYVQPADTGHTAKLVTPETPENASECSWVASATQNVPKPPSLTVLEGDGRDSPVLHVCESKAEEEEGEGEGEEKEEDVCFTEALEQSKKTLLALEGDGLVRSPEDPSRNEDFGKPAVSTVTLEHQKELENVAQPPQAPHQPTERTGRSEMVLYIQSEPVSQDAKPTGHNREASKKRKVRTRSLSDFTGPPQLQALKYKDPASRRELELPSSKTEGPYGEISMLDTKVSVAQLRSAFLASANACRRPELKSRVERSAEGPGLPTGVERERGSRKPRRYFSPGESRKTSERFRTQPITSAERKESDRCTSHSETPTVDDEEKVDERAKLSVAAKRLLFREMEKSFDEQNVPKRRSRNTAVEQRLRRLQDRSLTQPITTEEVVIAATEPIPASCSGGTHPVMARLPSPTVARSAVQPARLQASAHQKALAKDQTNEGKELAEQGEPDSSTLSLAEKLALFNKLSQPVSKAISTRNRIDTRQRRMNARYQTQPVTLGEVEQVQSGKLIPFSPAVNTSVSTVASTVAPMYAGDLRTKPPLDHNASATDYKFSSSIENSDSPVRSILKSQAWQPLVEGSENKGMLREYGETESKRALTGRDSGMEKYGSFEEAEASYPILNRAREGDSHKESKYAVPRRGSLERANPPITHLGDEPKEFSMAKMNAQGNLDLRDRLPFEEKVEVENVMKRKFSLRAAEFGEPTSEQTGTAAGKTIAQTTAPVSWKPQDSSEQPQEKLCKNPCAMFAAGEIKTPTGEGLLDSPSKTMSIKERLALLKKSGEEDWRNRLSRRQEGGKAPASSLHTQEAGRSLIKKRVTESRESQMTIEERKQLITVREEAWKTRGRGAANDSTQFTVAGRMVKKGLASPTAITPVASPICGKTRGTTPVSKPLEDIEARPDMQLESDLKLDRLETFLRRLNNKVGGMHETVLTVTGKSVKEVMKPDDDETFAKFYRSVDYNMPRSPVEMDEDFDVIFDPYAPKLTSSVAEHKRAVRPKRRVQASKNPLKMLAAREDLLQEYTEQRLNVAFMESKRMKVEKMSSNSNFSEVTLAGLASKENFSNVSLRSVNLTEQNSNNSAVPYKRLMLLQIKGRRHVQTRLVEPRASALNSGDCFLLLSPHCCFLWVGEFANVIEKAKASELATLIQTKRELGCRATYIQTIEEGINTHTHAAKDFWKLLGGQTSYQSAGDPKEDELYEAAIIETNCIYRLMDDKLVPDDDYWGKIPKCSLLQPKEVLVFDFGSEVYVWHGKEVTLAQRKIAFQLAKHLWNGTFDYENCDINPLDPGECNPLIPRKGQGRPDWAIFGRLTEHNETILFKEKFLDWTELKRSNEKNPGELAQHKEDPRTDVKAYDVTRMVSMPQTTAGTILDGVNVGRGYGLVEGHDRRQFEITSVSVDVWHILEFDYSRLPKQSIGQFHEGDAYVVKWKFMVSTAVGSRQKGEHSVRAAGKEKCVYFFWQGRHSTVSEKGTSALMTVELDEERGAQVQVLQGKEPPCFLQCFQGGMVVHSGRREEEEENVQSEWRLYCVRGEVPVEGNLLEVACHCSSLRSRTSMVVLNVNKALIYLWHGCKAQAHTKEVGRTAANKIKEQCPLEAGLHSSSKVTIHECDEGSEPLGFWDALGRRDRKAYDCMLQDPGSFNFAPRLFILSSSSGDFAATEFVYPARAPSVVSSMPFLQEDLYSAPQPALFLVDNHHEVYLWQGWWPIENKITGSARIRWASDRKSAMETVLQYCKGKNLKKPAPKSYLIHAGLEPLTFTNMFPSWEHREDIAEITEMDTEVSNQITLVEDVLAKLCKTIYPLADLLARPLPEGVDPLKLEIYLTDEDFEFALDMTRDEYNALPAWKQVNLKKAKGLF
# UniProt O75446: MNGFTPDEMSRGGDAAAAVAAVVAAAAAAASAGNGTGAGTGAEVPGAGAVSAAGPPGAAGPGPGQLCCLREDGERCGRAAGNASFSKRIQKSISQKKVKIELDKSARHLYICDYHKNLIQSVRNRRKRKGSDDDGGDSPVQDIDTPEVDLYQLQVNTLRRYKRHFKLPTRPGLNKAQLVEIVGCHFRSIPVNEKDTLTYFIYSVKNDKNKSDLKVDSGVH
# UniProt O94817, whole entry: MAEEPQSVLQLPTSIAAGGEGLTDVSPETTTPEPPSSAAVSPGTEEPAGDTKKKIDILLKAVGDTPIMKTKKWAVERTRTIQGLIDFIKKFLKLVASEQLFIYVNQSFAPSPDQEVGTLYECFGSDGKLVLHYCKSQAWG
# ± gives the standard deviation of the averaged measurements. The list shows a part of the results.
# Compound: Nc1nc2c(ncn2[C@@H]2O[C@H](COP(=O)(O)OP(=O)(O)OP(=O)(O)O)[C@@H](O)[C@H]2O)c(=O)[nH]1 [guanosine triphosphate]
# Assay: NP40-soluble protein abundance relative to vehicle (solubility fold change) (ratio); higher = more soluble protein in presence of GTP
# Procedure, shortened: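 Each value is a fold change relative to the detergent-processed vehicle, calculated per replicate from vsn-normalised intensities. Jurkat crude lysate received eight concentrations (0.1 to 10 mM) for 10 min at room temperature and 3 min at 37 °C, then was solubilised in 0.8% NP40 with benzonase (60 min, 4 °C). The ultracentrifuged supernatant was TMT-labelled and run by LC-MS/MS in three independent experiments.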
Target,NP40-soluble protein abundance (concentration: 0.1mM),NP40-soluble protein abundance (concentration: 0.5mM),NP40-soluble protein abundance (concentration: 1mM),NP40-soluble protein abundance (concentration: 2mM),NP40-soluble protein abundance (concentration: 4mM),NP40-soluble protein abundance (concentration: 6mM),NP40-soluble protein abundance (concentration: 8mM),NP40-soluble protein abundance (concentration: 10mM)
UniProt O96017 and related entries,1.04 ± 0.037,1.07 ± 0.062,0.987 ± 0.029,0.98 ± 0.051,0.968 ± 0.044,0.937 ± 0.042,0.933 ± 0.015,0.881 ± 0.071
UniProt O94826,0.939 ± 0.039,0.949 ± 0.072,0.934 ± 0.061,0.911 ± 0.085,0.89 ± 0.061,0.904 ± 0.084,0.893 ± 0.059,0.917 ± 0.073
SS18L1 (UniProt O75177),0.937 ± 0.036,1.03 ± 0.064,1.11 ± 0.061,1.13 ± 0.11,1.2 ± 0.15,1.19 ± 0.17,1.22 ± 0.17,1.22 ± 0.25
VPS4B (UniProt O75351),0.961 ± 0.052,0.965 ± 0.056,0.98 ± 0.082,0.949 ± 0.095,0.931 ± 0.092,0.925 ± 0.09,0.919 ± 0.077,0.917 ± 0.091
GOT2 (UniProt P00505),1 ± 0.018,1.01 ± 0.048,0.916 ± 0.026,0.906 ± 0.03,0.885 ± 0.019,0.886 ± 0.0084,0.853 ± 0.05,0.835 ± 0.051
UniProt P05023 and related entries,0.952 ± 0.036,0.974 ± 0.039,0.964 ± 0.037,0.932 ± 0.069,0.919 ± 0.06,0.938 ± 0.058,0.957 ± 0.029,0.937 ± 0.062
UBXN7 (UniProt O94888),0.964 ± 0.086,0.958 ± 0.053,0.946 ± 0.12,0.926 ± 0.098,0.91 ± 0.11,0.94 ± 0.11,0.917 ± 0.1,0.946 ± 0.077
COQ9 (UniProt O75208),0.904 ± 0.073,0.829 ± 0.057,0.97 ± 0.016,0.949 ± 0.065,0.931 ± 0.055,0.904 ± 0.068,0.878 ± 0.13,0.972 ± 0.037
UniProt O75037 and related entries,1 ± 0.032,1.07 ± 0.042,1.12 ± 0.055,1.08 ± 0.051,1.12 ± 0.056,1.14 ± 0.068,1.17 ± 0.099,1.15 ± 0.014
UniProt P06127,0.938 ± 0.051,0.932 ± 0.052,0.968 ± 0.038,0.937 ± 0.049,0.939 ± 0.048,0.959 ± 0.063,0.963 ± 0.063,1.01 ± 0.042
UniProt P06239 and related entries,1.013 ± 0.0087,1.04 ± 0.034,0.994 ± 0.022,1 ± 0.032,1 ± 0.023,0.963 ± 0.015,0.929 ± 0.026,0.919 ± 0.039
SRP72 (UniProt O76094),0.958 ± 0.045,0.965 ± 0.029,0.98 ± 0.052,0.988 ± 0.035,1.03 ± 0.031,1.04 ± 0.045,1.05 ± 0.053,1.05 ± 0.064
ARL6IP5 (UniProt O75915),0.965 ± 0.096,0.983 ± 0.078,0.861 ± 0.06,0.83 ± 0.027,0.798 ± 0.023,0.876 ± 0.075,0.813 ± 0.06,0.775 ± 0.028
ENDOD1 (UniProt O94919),0.977 ± 0.016,0.985 ± 0.01,0.965 ± 0.026,0.936 ± 0.041,0.934 ± 0.037,0.941 ± 0.062,0.937 ± 0.044,0.921 ± 0.03
PPM1B (UniProt O75688),0.9514 ± 0.0053,0.95 ± 0.041,0.91 ± 0.045,0.9 ± 0.055,0.856 ± 0.064,0.876 ± 0.081,0.868 ± 0.053,0.889 ± 0.056
UniProt P04049 and related entries,1.13 ± 0.13,1.31 ± 0.22,1.28 ± 0.2,1.4 ± 0.28,1.44 ± 0.3,1.38 ± 0.31,1.37 ± 0.29,1.37 ± 0.29
UniProt O95644 and related entries,1.01 ± 0.2,1.07 ± 0.094,1.25 ± 0.18,1.37 ± 0.17,1.31 ± 0.29,1.34 ± 0.19,1.17 ± 0.053,1.34 ± 0.3
UniProt O75093 and related entries,0.974 ± 0.065,0.998 ± 0.031,0.967 ± 0.035,1.03 ± 0.062,1.13 ± 0.14,1.11 ± 0.051,1.13 ± 0.059,1.19 ± 0.099
UniProt O75600 and related entries,1.03 ± 0.036,1.02 ± 0.024,0.996 ± 0.071,0.975 ± 0.07,0.978 ± 0.041,0.948 ± 0.016,0.95 ± 0.018,0.915 ± 0.021
UniProt O75191 and related entries,1.04 ± 0.022,1.01 ± 0.09,0.992 ± 0.074,0.935 ± 0.068,0.94 ± 0.063,0.94 ± 0.067,0.972 ± 0.061,0.906 ± 0.077
HMGN2 (UniProt P05204),0.992 ± 0.2,1 ± 0.14,1.31 ± 0.23,1.46 ± 0.35,1.5 ± 0.11,1.89 ± 0.35,1.7 ± 0.41,2.68 ± 0.3
UniProt O95425 and related entries,0.879 ± 0.088,0.849 ± 0.12,0.96 ± 0.1,0.875 ± 0.15,0.885 ± 0.13,0.886 ± 0.14,0.885 ± 0.094,0.878 ± 0.15
SAP30 (UniProt O75446),0.981 ± 0.23,0.996 ± 0.15,1.14 ± 0.22,1.11 ± 0.15,1.12 ± 0.2,1.18 ± 0.18,1.22 ± 0.16,1.22 ± 0.2
POLR3D (UniProt P05423),1.03 ± 0.037,1.09 ± 0.037,1.12 ± 0.07,1.17 ± 0.066,1.19 ± 0.1,1.16 ± 0.086,1.21 ± 0.14,1.19 ± 0.14
NRAS (UniProt P01111),0.988 ± 0.079,0.948 ± 0.1,0.97 ± 0.082,0.889 ± 0.12,0.929 ± 0.12,0.895 ± 0.12,0.927 ± 0.1,0.847 ± 0.091
ATG12 (UniProt O94817),0.994 ± 0.056,0.94 ± 0.019,0.944 ± 0.025,0.893 ± 0.081,0.908 ± 0.071,0.911 ± 0.055,0.958 ± 0.022,0.918 ± 0.065
DNAJC13 (UniProt O75165),1.04 ± 0.025,1.025 ± 0.007,1.06 ± 0.19,1.0266 ± 0.00091,1.02 ± 0.042,1.15 ± 0.14,1.23 ± 0.12,1.1 ± 0.032
AHSA1 (UniProt O95433),1.002 ± 0.0056,1.027 ± 0.01,0.947 ± 0.027,0.931 ± 0.029,0.861 ± 0.045,0.903 ± 0.049,0.86 ± 0.041,0.848 ± 0.063

# As entered above:
# NP40-soluble protein abundance (concentration: 0.1mM) with UniProt O75037 and related entries reads 1 ± 0.032
# NP40-soluble protein abundance (concentration: 10mM) with ATG12 (UniProt O94817) reads 0.918 ± 0.065
